Data as given in PubChem BioAssay AID1508597 (Cure First, 2020).
This is an unselected part of about 2,100 reagents tested. 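Calls flag viability under 80% in either arm, not effects specific to rucaparib; the reference for percent is not stated.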 A reagent listed more than once was tested more than once; the source does not tell the runs apart. Not given: the 100% reference.

- Purpose: 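Genes whose silencing sensitises or protects ovarian cancer cells against rucaparib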 (primary screen)
- System: human ovarian carcinoma lines grown from tumours: OCI-P5x (papillary serous) and OCI-C5x (clear cell)
- Reagent: siRNA pool against human genes, 1.25 pmol siRNA per well
- Timing: 72 h or 96 h, depending on the cell culture
- Conditions: rucaparib 20 µM (about IC30) or vehicle, present until read-out
- Measurement: 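Luminescent ATP-based viability assay read 72 or 96 h after transfection, depending on culture, given as normalised percent viability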
- Scale: viability, normalised: higher = more viable cells remaining
- Rule for the call: 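Active when normalised viability falls below 80 percent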
- Meaning of the calls: active = viability under 80%; inactive = viability 80% or more

target | rucaparib or vehicle | cell line | technical replicate | viability, normalised (%) | call
MYLK | Rucaparib | OCI-C5x (clear cell) | 1 | 73.5 | active
MYLK | Rucaparib | OCI-C5x (clear cell) | 1 | 41.1 | active
MYLK | Rucaparib | OCI-C5x (clear cell) | 2 | 79.6 | active
MYLK | Rucaparib | OCI-C5x (clear cell) | 2 | 57.9 | active
MYLK | Rucaparib | OCI-C5x (clear cell) | 3 | 78.8 | active
MYLK | Rucaparib | OCI-C5x (clear cell) | 3 | 80.9 | inactive
MYLK | Rucaparib | OCI-P5x (serous) | 1 | 91.3 | inactive
MYLK | Rucaparib | OCI-P5x (serous) | 1 | 81.1 | inactive
MYLK | Rucaparib | OCI-P5x (serous) | 2 | 90.1 | inactive
MYLK | Rucaparib | OCI-P5x (serous) | 2 | 93.2 | inactive
MYLK | Rucaparib | OCI-P5x (serous) | 3 | 101 | inactive
MYLK | Rucaparib | OCI-P5x (serous) | 3 | 78.8 | active
MYLK | Vehicle | OCI-C5x (clear cell) | 1 | 128 | inactive
MYLK | Vehicle | OCI-C5x (clear cell) | 1 | 62.6 | active
MYLK | Vehicle | OCI-C5x (clear cell) | 2 | 78.4 | active
MYLK | Vehicle | OCI-C5x (clear cell) | 2 | 68.4 | active
MYLK | Vehicle | OCI-C5x (clear cell) | 3 | 68.6 | active
MYLK | Vehicle | OCI-C5x (clear cell) | 3 | 75.3 | active
MYLK | Vehicle | OCI-P5x (serous) | 1 | 78.5 | active
MYLK | Vehicle | OCI-P5x (serous) | 1 | 105 | inactive
MYLK | Vehicle | OCI-P5x (serous) | 2 | 88.8 | inactive
MYLK | Vehicle | OCI-P5x (serous) | 2 | 84.1 | inactive
MYLK | Vehicle | OCI-P5x (serous) | 3 | 107 | inactive
MYLK | Vehicle | OCI-P5x (serous) | 3 | 91 | inactive
